# According to US8263628B2, “Fluorine-containing organosulfur compound and pesticidal composition thereof” (Sumitomo Chemical Company, Limited., priority 2007, dated 2012):
# Some entries share one result that the patent states for a list of compounds.
# System: Blattalla germanica
# Test: Filter paper/sucrose bait test against male adult Blattalla germanica
# Format: in vivo
# Details: 500 ppm test solution, 0.7 mL on filter paper; 2 male adult Blattalla germanica; after 6 days
row,SMILES,mortality rate [%]
1,"O=S(=O)(CCC(F)(F)F)Cc1ccc(C(F)(F)F)nc1 [present compound (2), 2-trifluoromethyl-5-(3,3,3-trifluoropropanesulfonylmethyl)pyridine]",100
2,"CC(c1ccc(C(F)(F)F)nc1)S(=O)(=O)CCC(F)(F)F (stereo not drawn) [present compound (4), 2-trifluoromethyl-5-[1-(3,3,3-trifluoropropanesulfonyl)ethyl]pyridine]",100
3,"FC(F)(F)CCSCc1cnc(C(F)(F)F)nc1 [present compound (10), 2-trifluoromethyl-5-(3,3,3-trifluoropropylsulfanylmethyl)pyrimidine]",100
4,"CC(c1ccc(C(F)(F)F)cn1)S(=O)(=O)CCC(F)(F)F (stereo not drawn) [present compound (9), 5-trifluoromethyl-2-[1-(3,3,3-trifluoropropanesulfonyl)ethyl]pyridine]",100
5,"CC(SCCC(F)(F)F)c1ccc(C(F)(F)F)cn1 (stereo not drawn) [present compound (8), 5-trifluoromethyl-2-[1-(3,3,3-trifluoropropylsulfanyl)ethyl]pyridine]",100
6,"FC(F)(F)CCSCc1ccc(C(F)(F)F)nc1 [present compound (1), 2-trifluoromethyl-5-(3,3,3-trifluoropropylsulfanylmethyl)pyridine]",100
7,"FC(F)(F)CCSCc1ccc(Cl)cn1 [present compound (5), 5-chloro-2-(3,3,3-trifluoropropylsulfanylmethyl)pyridine]",100
8,"CC(SCCC(F)(F)F)c1ccc(C(F)(F)F)nc1 (stereo not drawn) [present compound (3), 2-trifluoromethyl-5-[1-(3,3,3-trifluoropropylsulfanyl)ethyl]pyridine]",100
9,"COC(=O)C(Cl)(c1ccc(C(F)(F)F)cn1)S(=O)(=O)CCC(F)(F)F (stereo not drawn) [present compound (14), methyl 2-chloro-2-(5-trifluoromethylpyridin-2-yl)-2-(3,3,3-trifluoropropylsulfonyl)acetate]",100
10,"O=S(=O)(CCC(F)(F)F)C(Cl)c1ccc(C(F)(F)F)cn1 (stereo not drawn) [present compound (15), 2-[chloro-(3,3,3-trifluoropropanesulfonyl)methyl]-5-trifluoromethylpyridine]",100
11,"FC(F)(F)CCSCc1cnc(Cl)nc1 [present compound (11), 2-chloro-5-(3,3,3-trifluoropropylsulfanylmethyl)pyrimidine]",100
12,"CC(SCCC(F)(F)F)c1ccc(Cl)cn1 (stereo not drawn) [present compound (6), 5-chloro-2-[1-(3,3,3-trifluoropropylsulfanyl)ethyl]pyridine]",100
